Values from PubChem BioAssay AID686938 (Drosophila RNAi Screening Center, 2013).
Purpose: 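Fly genes required for calcium entry once internal stores are emptied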 (primary screen). Cell system: Drosophila S2R+ cells. Knock-down reagent: long dsRNA against Drosophila genes, about 0.25 µg dsRNA per well, roughly 10,000 cells. Timing: 5 days of knock-down before the calcium assay. Conditions: thapsigargin (SERCA pump blocker) to empty calcium stores; entry signal taken 4 min after adding it. Read-out: 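Duplicate raw fluo-4 intensities per well from a plate reader, at rest and four minutes after thapsigargin emptied calcium stores; entry-to-rest ratio filled for only some wells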. Direction: calcium entry signal: higher = stronger calcium signal after store depletion; resting calcium signal: higher = higher resting calcium signal. Hit rule: 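Hit if the duplicate-averaged plate z-score for entry over resting signal is under −3; wells with weak total dye signal (Fmax z < −2) or more than 5 off-targets removed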. Calls: active = strongly reduced calcium entry; inactive = no strong reduction.
The deposit covers about 23,000 reagents; shown is a random part of those with a known target gene and a result. In the full data, 75 (0.33%) were called active. 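Raw plate signals without normalisation; calls rest on plate z-scores that were not deposited; ratio present for only 364 wells.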 Not stated in the record: the dose of the treatment.

| gene | DRSC id | calcium entry signal, replicate 1 (fluorescence units) | calcium entry signal, replicate 2 (fluorescence units) | resting calcium signal, replicate 1 (fluorescence units) | resting calcium signal, replicate 2 (fluorescence units) | Outcome |
| --- | --- | --- | --- | --- | --- | --- |
| RpS30 | DRSC15119 | 9.89e6 | 1.14e7 | 8.03e6 | 8.44e6 | inactive |
| LysP | DRSC08676 | 2.79e7 | 2.70e7 | 1.37e7 | 1.22e7 | inactive |
| Membrin | DRSC10448 | 3.02e7 | 5.88e7 | 1.59e7 | 2.57e7 | inactive |
| Six4 | DRSC11881 | 3.69e7 | 5.01e7 | 1.68e7 | 2.14e7 | inactive |
| SerRS | DRSC00496 | 3.70e7 | – | 1.71e7 | – | inactive |
| nenya | DRSC13838 | 3.63e7 | 3.51e7 | 1.77e7 | 1.78e7 | inactive |
| hzg | DRSC10549 | 4.58e7 | 4.47e7 | 2.84e7 | 2.16e7 | inactive |
| CG43394 | DRSC01013 | 4.18e7 | 4.18e7 | 2.04e7 | 1.96e7 | inactive |
| CG43394 | DRSC21835 | 4.51e7 | 3.29e7 | 2.24e7 | 1.45e7 | inactive |
| Arv1 | DRSC11491 | 3.55e7 | 3.18e7 | 1.81e7 | 1.62e7 | inactive |
| dysc | DRSC10273 | 2.62e7 | 4.78e7 | 1.49e7 | 2.44e7 | inactive |
| dysc | DRSC11040 | 3.15e7 | 3.49e7 | 1.72e7 | 1.61e7 | inactive |
| dysc | DRSC22334 | 4.07e7 | 6.88e7 | 1.90e7 | 3.23e7 | inactive |
| dysc | DRSC22437 | 3.80e7 | 3.20e7 | 1.94e7 | 1.66e7 | inactive |
| dysc | DRSC22824 | 2.85e7 | 3.86e7 | 1.46e7 | 1.88e7 | inactive |
| dysc | DRSC23128 | 3.62e7 | 4.36e7 | 1.77e7 | 1.94e7 | inactive |
| pr | DRSC03596 | 5.58e7 | – | 2.64e7 | – | inactive |
| CG30222 | DRSC04125 | 3.53e7 | 4.35e7 | 1.58e7 | 1.71e7 | inactive |
| CG30222 | DRSC04262 | 5.90e7 | 5.19e7 | 2.91e7 | 2.20e7 | inactive |
| Smyd4-1 | DRSC06785 | 4.24e7 | 2.88e7 | 1.78e7 | 1.38e7 | inactive |
| Spps | DRSC15856 | 4.44e7 | 3.93e7 | 2.23e7 | 2.15e7 | inactive |
| Spps | DRSC23206 | 3.67e7 | 4.96e7 | 1.64e7 | 2.02e7 | inactive |
| mfas | DRSC16997 | 3.13e7 | 4.01e7 | 1.31e7 | 1.86e7 | inactive |
| lambdaTry | DRSC06137 | 2.98e7 | 4.25e7 | 1.50e7 | 1.80e7 | inactive |
